# Assay results as given in the supplement of paper PMC8728848.
# This is one part of the list.
# B1: Mermaid2 (Stilbonema majum) (protein)
# chain: MGSSHHHHHHSSGLVPRGSHMAASGWLRSPQGTVVKLYRRSLSWSKADEFCKDVDGRLVVDRTADMHLFLIKNVLKEKKSRVWVGLRRTAPHSRTWIWSDGTRQNEDDLNTNLWLRDEPNDAAGEEECALFMYSPWEKAWGLNDYLCRGGCRSYQFICEKGIR
# Legend:
# Experiment in all cases: glycan array binding signal (z-score within array); higher = stronger binding
# Details in all cases: glycan notation: IUPAC condensed, linker removed
# [1] = biological target: Gal(b1-4)GlcNAc(b1-3)Gal(b1-4)GlcNAc(b1-6)[Gal(b1-3)]GalNAc
# Outline: (§1)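 The binding signal is a Z-score computed within each array. Data were drawn from 3228 arrays in the Consortium for Functional Glycomics database, restricted to those with a known protein sequence. Scores were averaged over arrays of the same protein sequence at different concentrations or buffers, and over linkers, and negative values can be taken as non-binding.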
# [2] = biological target: Gal(b1-4)GlcNAc(b1-3)Gal(b1-4)[Fuc(a1-3)]GlcNAc(b1-3)Gal(b1-4)[Fuc(a1-3)]GlcNAc
# Outline: as §1
# [3] = biological target: Gal(b1-4)GlcNAc(b1-3)GalNAc
# Outline: as §1
# [4] = biological target: Gal(b1-4)GlcNAc(b1-3)[Fuc(a1-3)GlcNAc(b1-6)]Gal(b1-4)Glc
# Outline: as §1
# [5] = biological target: Gal(b1-4)GlcNAc(b1-3)[Gal(b1-4)GlcNAc(b1-6)]Gal(b1-4)GlcNAc
# Outline: as §1
# [6] = biological target: Gal(b1-4)GlcNAc(b1-3)[GlcNAc(b1-6)]Gal(b1-4)GlcNAc
# Outline: as §1
# [7] = biological target: Gal(b1-4)GlcNAc(b1-6)Gal(b1-4)GlcNAc
# Outline: as §1
# [8] = biological target: Gal(b1-4)GlcNAc(b1-6)GalNAc
# Outline: as §1
# [9] = biological target: Gal(b1-4)GlcNAc(b1-6)[Gal(b1-3)]GalNAc
# Outline: as §1
# [10] = biological target: Gal(b1-4)GlcNAc(b1-6)[Gal(b1-4)GlcNAc(b1-3)]GalNAc
# Outline: as §1
# [11] = biological target: Gal(b1-4)GlcNAc6P
# Outline: as §1
# [12] = biological target: Gal(b1-6)Gal
# Outline: as §1
# [13] = biological target: Gal3S(b1-3)GalNAc
# Outline: as §1
# [14] = biological target: Gal3S(b1-3)GlcNAc
# Outline: as §1
# [15] = biological target: Gal3S(b1-3)[Fuc(a1-4)]GlcNAc
# Outline: as §1
# [16] = biological target: Gal3S(b1-4)Glc
# Outline: as §1
# [17] = biological target: Gal3S(b1-4)Glc6S
# Outline: as §1
# [18] = biological target: Gal3S(b1-4)GlcNAc
# Outline: as §1
# [19] = biological target: Gal3S(b1-4)[Fuc(a1-3)]Glc6S
# Outline: as §1
# [20] = biological target: Gal3S(b1-4)[Fuc(a1-3)]GlcNAc
# Outline: as §1
# [21] = biological target: Gal3S(b1-4)[Fuc(a1-3)]GlcNAc6S
# Outline: as §1
# [22] = biological target: Gal3S4S(b1-4)GlcNAc
# Outline: as §1
# [23] = biological target: Gal3S6S(b1-4)GlcNAc
# Outline: as §1
# [24] = biological target: Gal3S6S(b1-4)GlcNAc6S
# Outline: as §1
# [25] = biological target: Gal4S(b1-4)GlcNAc
# Outline: as §1
# [26] = biological target: Gal4S6S(b1-4)GlcNAc
# Outline: as §1
# [27] = biological target: Gal6P(b1-4)GlcNAc
# Outline: as §1
# [28] = biological target: Gal6S(b1-3)GlcNAc
# Outline: as §1
# [29] = biological target: Gal6S(b1-3)GlcNAc6S
# Outline: as §1
# [30] = biological target: Gal6S(b1-4)Glc
# Outline: as §1
# [31] = biological target: Gal6S(b1-4)Glc6S
# Outline: as §1
# [32] = biological target: Gal6S(b1-4)GlcNAc
# Outline: as §1
# [33] = biological target: Gal6S(b1-4)GlcNAc6S
# Outline: as §1
# [34] = biological target: GalNAc(a1-3)Gal
# Outline: as §1
# [35] = biological target: GalNAc(a1-3)GalNAc
# Outline: as §1
# [36] = biological target: GalNAc(a1-3)GalNAc(b1-3)Gal(a1-4)Gal(b1-4)Glc
# Outline: as §1
# [37] = biological target: GalNAc(a1-3)GalNAc(b1-3)Gal(a1-4)Gal(b1-4)GlcNAc
# Outline: as §1
# [38] = biological target: GalNAc(b1-3)Gal
# Outline: as §1
# [39] = biological target: GalNAc(b1-3)Gal(a1-4)Gal(b1-4)GlcNAc
# Outline: as §1
# [40] = biological target: GalNAc(b1-3)Gal(a1-4)Gal(b1-4)GlcNAc(b1-3)Gal(b1-4)Glc
# Outline: as §1
# [41] = biological target: GalNAc(b1-3)Gal(a1-6)Gal(b1-4)Glc
# Outline: as §1
# [42] = biological target: GalNAc(b1-3)GalNAc
# Outline: as §1
# [43] = biological target: GalNAc(b1-3)GlcNAc
# Outline: as §1
# [44] = biological target: GalNAc(b1-4)Gal(b1-4)Glc
# Outline: as §1
# [45] = biological target: GalNAc(b1-4)GlcNAc
# Outline: as §1
binder,measurement,setting,value
B1,glycan array binding signal (z-score),[1],1.05
same,glycan array binding signal (z-score),[2],0.419
same,glycan array binding signal (z-score),[3],-0.428
same,glycan array binding signal (z-score),[4],-0.582
same,glycan array binding signal (z-score),[5],0.024
same,glycan array binding signal (z-score),[6],1.79
same,glycan array binding signal (z-score),[7],-0.432
same,glycan array binding signal (z-score),[8],-0.317
same,glycan array binding signal (z-score),[9],0.098
same,glycan array binding signal (z-score),[10],-0.243
same,glycan array binding signal (z-score),[11],-0.662
same,glycan array binding signal (z-score),[12],0.995
same,glycan array binding signal (z-score),[13],1.21
same,glycan array binding signal (z-score),[14],0.749
same,glycan array binding signal (z-score),[15],-0.527
same,glycan array binding signal (z-score),[16],1.66
same,glycan array binding signal (z-score),[17],0.612
same,glycan array binding signal (z-score),[18],0.517
same,glycan array binding signal (z-score),[19],-0.639
same,glycan array binding signal (z-score),[20],-0.482
same,glycan array binding signal (z-score),[21],0.154
same,glycan array binding signal (z-score),[22],-0.249
same,glycan array binding signal (z-score),[23],0.553
same,glycan array binding signal (z-score),[24],-0.077
same,glycan array binding signal (z-score),[25],-0.303
same,glycan array binding signal (z-score),[26],0.216
same,glycan array binding signal (z-score),[27],-0.237
same,glycan array binding signal (z-score),[28],-0.649
same,glycan array binding signal (z-score),[29],-0.172
same,glycan array binding signal (z-score),[30],-0.719
same,glycan array binding signal (z-score),[31],0.45
same,glycan array binding signal (z-score),[32],-0.357
same,glycan array binding signal (z-score),[33],-0.12
same,glycan array binding signal (z-score),[34],-0.361
same,glycan array binding signal (z-score),[35],-0.71
same,glycan array binding signal (z-score),[36],-0.539
same,glycan array binding signal (z-score),[37],-0.198
same,glycan array binding signal (z-score),[38],-0.009
same,glycan array binding signal (z-score),[39],-0.287
same,glycan array binding signal (z-score),[40],0.501
same,glycan array binding signal (z-score),[41],-0.499
same,glycan array binding signal (z-score),[42],0.616
same,glycan array binding signal (z-score),[43],0.183
same,glycan array binding signal (z-score),[44],0.777
same,glycan array binding signal (z-score),[45],-0.077

# 3 entries picked at random from those above, as already listed:
binder,measurement,setting,value
B1,glycan array binding signal (z-score),[14],0.749
same,glycan array binding signal (z-score),[11],-0.662
same,glycan array binding signal (z-score),[34],-0.361
